The structures appear in SMILES notation. The campaign covered roughly 330,000 compounds. About 4,200 (1.3%) were called active. Another 6% or so got no clear call; they are omitted. Calls follow the shape of the dose curve; as a rule, active = well fitted activation curve with a large enough effect; inconclusive = small, poorly fitted or top-dose-only effect; inactive = no such curve, though single readings can be large or run the other way. The list shows a part of the results, in another mix than the full data. Where no call is shown, the source filed none.
Potency is read from the fitted curve at half-maximal effect.

A short description of this assay: qHTS screen for small molecules that induce genotoxicity in human embryonic kidney (HEK293T) cells expressing luciferase-tagged ELG1. Also: nearly all actives have a fitted effect of over 60% in size. As to activity change, positive = activation: % of control where 0% means no effect. Conditions: HEK293T ELG1-luciferase reporter, luminescence, 16 h; activity change, positive = activation: at 46 µM (top of the series). The source says: NIH Molecular Libraries Probe Production Network [MLPCN] NIH Chemical Genomics Center [NCGC] MLPCN Grant: 1 R03 MH092164-01 Assay Provider: Kyungjae Myung, NHGRI, NIH Keywords: MLPCN, qHTS, NCGC, genotoxicity, cancer Assay Overview: Cancer cells divide rapidly compared to normal cells in the body. During cell division, cancer cells need to duplicate their genome by DNA replication. The failure of genome duplication leads to cancer cells' death. Therefore, inhibitors of DNA replication could specifically kill cancer cells. Based on this concept, many chemotherapeutic agents were developed and have been used to treat cancer patients. However, there are a limited number of agents available in the clinical setting, and some of those that do exist have low efficacy and severe side effects. Therefore, if we can find the compounds that effectively block DNA replication either by directly damaging DNA or by inhibiting other cellular mechanisms, the options for cancer treatment will be broadened. With this in mind, we developed a quantitative high-throughput ELG1-luciferase reporter gene assay. Since the level of human ELG1 protein is enhanced in response to genetic stresses, increases in luciferase activity can be used to identify compounds that cause genetic stress.
Assay Protocol Summary: For genotoxicity screening, 2,000 cells in 5 uL/well were dispensed into white, solid-bottom 1536-well plates using a solenoid-based dispenser. Following transfer of 23 nL compound or DMSO vehicle by a pin tool, the plates were incubated 16 hr at 37 °C and 5% CO2. 5 ul ONE-Glo (Promega) was then added to each plate and following a 30 min incubation at room temperature, luciferase activity was quantified on a ViewLux CCD-based plate reader.
On to `O=C(NC1CCCCC1)c1cccc(S(=O)(=O)N2CCCCC2)c1`, for which the activity change, positive = activation came out at 9.3%.
On the same count and under the same terms, then `COC(=O)c1cc2n(n1)CCN(Cc1ccc(C)cc1)C2=O`, with -0.579%.
Take `COC(=O)Cc1ccc(NC(=O)c2ccc(Br)o2)cc1`: the Potency was active: 18400 nM.
In the case of `CS(=O)(=O)n1nc(-c2ccccc2)nc1NCc1ccco1`, the activity change, positive = activation came out at 9.74%.
On to `Cc1ccc(S(=O)(=O)n2nccc2-c2c(-c3ccc(Cl)cc3)noc2C)cc1`, for which the “activity change, positive = activation” value is inactive: -24.4%.
`S=c1[nH]nc(-c2ccco2)n1Cc1ccccc1`: the activity change, positive = activation stood at 38%.
As for `COC(=O)c1ccc(C(=O)OC)c(NC(=O)COC(=O)CCOc2ccc(C)cc2)c1`, the activity change, positive = activation worked out at 15.7%.
For `Cn1c(=O)c2c(ncn2CCCC(=N)N2CCOCC2)n(C)c1=O`, the activity change, positive = activation worked out at 0.0403%.
`Cc1cc(N2CCOCC2)ccc1/C=C\[N+](=O)[O-]`: the “activity change, positive = activation” value was inactive: -21.4%.
`Cc1ccc(C#N)c(SCC(=O)Nc2nccs2)n1`: the Potency is active: 1830 nM.
With `CC(=O)c1c(OC(=O)c2ccc(C)cc2)c2ccccc2n1C`, the “activity change, positive = activation” value is inactive: -40.5%.
As for `CCOC(=O)C1=NOC(Cn2cc(C(C)=O)c(=O)[nH]c2=O)C1` (configuration not stated), the activity change, positive = activation turned out to be 9.59%.
On to `CCCOC1CCCN(C(=O)c2cc(Cl)c(Cl)cc2C(=O)O)C1` (configuration not stated), for which the activity change, positive = activation is 58.1%.
As to `O=C(Nc1ccc(F)cc1)C(c1ccccc1)N1CCN(C(=O)c2ccco2)CC1` (configuration not stated), the activity change, positive = activation is 7.05%.
Turning to `COc1cccc(/C=N/Nc2ccc([N+](=O)[O-])cn2)c1O`, the Potency is active: 2590 nM.
As for `CCn1c2ccccc2c2nnc(SCCCn3c(=O)[nH]c4ccccc43)nc21`, the “activity change, positive = activation” value is inactive: -30.5%.
Take `CCc1nn2cc(-c3ccccc3)nc2s1`: the activity change, positive = activation is -1.11%.

Values taken from PubChem BioAssay AID504466 (National Center for Advancing Translational Sciences (NCATS), 2011).
